Measured values published in the supplement of paper PMC10849652.
The list shows a part of the results.

Protein sequences, listed by entry. Tags and fused reporters are not part of them. Lines headed by an entry give the natural chain unless they say otherwise; changes in a name come on top.
UniProt Q9BQT8: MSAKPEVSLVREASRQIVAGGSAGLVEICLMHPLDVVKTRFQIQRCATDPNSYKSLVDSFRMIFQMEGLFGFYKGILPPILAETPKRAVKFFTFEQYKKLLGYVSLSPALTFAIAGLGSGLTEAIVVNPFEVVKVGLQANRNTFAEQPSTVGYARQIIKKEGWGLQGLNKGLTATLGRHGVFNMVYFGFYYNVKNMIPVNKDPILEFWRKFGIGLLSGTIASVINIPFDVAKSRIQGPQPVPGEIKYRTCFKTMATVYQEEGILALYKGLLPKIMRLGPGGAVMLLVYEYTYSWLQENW
UniProt Q15599: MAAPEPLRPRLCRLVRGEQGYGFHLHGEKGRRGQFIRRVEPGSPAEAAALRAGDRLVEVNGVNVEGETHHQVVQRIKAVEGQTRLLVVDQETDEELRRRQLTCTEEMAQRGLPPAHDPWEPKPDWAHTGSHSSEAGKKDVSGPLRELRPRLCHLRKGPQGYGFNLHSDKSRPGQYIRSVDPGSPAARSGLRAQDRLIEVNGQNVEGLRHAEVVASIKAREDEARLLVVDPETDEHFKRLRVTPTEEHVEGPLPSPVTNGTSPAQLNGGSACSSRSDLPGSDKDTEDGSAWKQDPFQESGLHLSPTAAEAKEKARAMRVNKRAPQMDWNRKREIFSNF
UniProt Q6P1K1: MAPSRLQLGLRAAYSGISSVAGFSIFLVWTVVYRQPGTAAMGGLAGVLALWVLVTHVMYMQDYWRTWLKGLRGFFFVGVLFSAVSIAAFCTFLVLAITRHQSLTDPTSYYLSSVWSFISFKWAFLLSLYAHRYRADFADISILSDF
UniProt Q9HBR0: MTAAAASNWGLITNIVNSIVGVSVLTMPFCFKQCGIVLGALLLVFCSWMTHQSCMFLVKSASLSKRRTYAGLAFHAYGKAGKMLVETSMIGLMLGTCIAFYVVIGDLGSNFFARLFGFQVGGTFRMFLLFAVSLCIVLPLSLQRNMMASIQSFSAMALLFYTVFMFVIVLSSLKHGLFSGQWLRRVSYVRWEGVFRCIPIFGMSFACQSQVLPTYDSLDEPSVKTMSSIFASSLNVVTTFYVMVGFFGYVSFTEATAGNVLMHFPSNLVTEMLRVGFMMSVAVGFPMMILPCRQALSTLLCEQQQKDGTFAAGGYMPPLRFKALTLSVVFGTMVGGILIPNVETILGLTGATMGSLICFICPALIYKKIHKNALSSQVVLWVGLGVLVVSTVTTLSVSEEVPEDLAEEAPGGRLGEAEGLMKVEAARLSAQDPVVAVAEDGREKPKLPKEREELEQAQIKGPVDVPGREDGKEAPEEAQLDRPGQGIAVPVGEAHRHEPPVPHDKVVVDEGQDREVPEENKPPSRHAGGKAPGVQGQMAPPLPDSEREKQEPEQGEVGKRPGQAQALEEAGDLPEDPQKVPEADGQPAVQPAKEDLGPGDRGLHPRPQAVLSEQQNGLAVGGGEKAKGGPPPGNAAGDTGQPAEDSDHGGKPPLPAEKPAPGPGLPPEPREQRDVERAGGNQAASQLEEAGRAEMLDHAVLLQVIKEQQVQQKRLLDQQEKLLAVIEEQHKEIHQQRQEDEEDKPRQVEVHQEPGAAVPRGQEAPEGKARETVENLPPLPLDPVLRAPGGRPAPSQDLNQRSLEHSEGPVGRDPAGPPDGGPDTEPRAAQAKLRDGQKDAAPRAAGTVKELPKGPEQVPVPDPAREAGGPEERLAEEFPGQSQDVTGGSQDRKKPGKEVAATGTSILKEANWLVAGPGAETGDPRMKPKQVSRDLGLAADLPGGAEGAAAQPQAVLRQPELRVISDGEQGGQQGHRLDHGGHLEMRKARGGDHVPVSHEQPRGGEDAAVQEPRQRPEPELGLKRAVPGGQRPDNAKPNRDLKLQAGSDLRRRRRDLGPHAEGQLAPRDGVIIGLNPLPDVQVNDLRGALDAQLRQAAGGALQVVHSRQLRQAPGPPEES
UniProt Q96CW6: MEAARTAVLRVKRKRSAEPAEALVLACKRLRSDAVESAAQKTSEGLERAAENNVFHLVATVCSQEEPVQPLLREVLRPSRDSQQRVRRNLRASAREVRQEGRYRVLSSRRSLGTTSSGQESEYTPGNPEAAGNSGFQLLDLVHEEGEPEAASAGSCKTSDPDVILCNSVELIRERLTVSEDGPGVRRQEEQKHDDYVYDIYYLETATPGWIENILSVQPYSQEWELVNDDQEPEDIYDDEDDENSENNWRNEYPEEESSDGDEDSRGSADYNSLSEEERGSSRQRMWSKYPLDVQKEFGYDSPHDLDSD
UniProt Q9ULF5: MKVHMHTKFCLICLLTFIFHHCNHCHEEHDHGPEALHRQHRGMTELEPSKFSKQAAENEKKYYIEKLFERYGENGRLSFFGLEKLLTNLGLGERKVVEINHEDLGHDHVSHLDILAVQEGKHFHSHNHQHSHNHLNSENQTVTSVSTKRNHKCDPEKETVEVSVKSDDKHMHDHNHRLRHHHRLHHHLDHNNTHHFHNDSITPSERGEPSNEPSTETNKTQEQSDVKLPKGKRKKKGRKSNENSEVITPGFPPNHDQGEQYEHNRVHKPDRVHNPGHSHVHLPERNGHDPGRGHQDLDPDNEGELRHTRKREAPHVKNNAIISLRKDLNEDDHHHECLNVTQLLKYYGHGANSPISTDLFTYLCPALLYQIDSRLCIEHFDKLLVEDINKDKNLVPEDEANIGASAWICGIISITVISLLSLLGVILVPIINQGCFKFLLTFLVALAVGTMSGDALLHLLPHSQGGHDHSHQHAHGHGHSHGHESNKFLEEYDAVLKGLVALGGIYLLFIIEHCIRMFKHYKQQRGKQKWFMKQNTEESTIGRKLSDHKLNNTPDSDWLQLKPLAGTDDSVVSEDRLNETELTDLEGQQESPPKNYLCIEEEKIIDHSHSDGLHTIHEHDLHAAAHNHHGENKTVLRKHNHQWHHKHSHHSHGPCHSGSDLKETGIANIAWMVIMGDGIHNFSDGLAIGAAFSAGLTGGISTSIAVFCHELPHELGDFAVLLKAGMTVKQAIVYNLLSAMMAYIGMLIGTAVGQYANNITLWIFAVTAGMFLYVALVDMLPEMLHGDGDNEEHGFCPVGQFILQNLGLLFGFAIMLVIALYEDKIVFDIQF
UniProt Q96AG3: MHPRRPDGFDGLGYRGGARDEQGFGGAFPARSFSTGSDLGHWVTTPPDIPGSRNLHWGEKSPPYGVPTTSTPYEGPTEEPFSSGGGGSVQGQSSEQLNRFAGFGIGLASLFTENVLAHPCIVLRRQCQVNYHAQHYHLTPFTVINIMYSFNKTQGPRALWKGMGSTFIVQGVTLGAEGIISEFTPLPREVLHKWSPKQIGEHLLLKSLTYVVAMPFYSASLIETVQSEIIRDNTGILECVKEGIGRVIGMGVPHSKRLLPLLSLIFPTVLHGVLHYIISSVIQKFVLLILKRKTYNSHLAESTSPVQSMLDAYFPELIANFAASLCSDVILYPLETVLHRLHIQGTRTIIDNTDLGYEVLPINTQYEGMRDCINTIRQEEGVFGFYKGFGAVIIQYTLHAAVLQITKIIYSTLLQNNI
UniProt Q8IYB5: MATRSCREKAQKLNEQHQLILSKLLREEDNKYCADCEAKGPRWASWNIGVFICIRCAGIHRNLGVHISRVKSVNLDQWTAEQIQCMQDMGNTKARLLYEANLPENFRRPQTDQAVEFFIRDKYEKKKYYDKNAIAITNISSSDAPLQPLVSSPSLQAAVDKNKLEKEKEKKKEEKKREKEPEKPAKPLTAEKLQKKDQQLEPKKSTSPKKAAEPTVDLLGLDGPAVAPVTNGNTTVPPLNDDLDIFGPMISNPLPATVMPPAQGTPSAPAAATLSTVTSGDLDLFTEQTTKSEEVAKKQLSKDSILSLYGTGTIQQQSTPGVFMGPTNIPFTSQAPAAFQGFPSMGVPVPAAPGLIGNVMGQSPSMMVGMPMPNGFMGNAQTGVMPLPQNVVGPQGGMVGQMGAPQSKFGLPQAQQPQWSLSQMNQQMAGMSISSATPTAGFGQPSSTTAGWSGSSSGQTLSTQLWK
UniProt P14672: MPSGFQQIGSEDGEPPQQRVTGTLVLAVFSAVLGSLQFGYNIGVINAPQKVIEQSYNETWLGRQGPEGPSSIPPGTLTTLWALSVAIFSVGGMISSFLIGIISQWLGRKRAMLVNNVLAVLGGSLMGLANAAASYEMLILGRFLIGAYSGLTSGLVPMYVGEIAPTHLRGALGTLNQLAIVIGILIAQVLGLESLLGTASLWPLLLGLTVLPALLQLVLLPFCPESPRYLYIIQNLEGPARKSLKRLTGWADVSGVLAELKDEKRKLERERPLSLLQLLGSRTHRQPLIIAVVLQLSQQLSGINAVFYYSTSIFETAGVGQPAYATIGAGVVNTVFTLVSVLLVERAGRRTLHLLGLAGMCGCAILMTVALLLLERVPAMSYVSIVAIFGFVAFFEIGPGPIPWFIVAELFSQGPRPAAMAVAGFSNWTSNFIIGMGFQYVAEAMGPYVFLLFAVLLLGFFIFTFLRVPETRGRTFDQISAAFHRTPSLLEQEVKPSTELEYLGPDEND
UniProt P78381: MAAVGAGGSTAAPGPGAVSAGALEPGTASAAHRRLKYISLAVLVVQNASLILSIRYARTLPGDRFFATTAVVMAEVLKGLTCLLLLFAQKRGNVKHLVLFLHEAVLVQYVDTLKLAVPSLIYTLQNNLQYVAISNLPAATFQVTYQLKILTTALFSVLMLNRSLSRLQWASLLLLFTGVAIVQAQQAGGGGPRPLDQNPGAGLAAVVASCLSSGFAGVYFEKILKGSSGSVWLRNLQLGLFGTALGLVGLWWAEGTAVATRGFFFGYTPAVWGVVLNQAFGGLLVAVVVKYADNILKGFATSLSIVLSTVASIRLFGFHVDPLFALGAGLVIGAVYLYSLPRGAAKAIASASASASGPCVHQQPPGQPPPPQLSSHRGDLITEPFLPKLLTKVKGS
UniProt Q99808: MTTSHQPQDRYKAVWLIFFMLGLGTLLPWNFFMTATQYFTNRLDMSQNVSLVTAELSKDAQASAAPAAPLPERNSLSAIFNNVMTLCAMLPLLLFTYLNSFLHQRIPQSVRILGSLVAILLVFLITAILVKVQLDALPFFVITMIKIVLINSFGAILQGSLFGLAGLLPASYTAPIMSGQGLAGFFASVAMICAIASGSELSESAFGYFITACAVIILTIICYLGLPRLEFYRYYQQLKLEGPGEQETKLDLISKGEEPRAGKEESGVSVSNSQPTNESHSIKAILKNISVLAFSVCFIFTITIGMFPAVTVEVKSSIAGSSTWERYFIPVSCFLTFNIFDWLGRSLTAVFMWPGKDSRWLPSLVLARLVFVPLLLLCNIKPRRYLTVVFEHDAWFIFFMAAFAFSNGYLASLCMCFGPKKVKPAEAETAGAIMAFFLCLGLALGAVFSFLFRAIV
UniProt Q15043: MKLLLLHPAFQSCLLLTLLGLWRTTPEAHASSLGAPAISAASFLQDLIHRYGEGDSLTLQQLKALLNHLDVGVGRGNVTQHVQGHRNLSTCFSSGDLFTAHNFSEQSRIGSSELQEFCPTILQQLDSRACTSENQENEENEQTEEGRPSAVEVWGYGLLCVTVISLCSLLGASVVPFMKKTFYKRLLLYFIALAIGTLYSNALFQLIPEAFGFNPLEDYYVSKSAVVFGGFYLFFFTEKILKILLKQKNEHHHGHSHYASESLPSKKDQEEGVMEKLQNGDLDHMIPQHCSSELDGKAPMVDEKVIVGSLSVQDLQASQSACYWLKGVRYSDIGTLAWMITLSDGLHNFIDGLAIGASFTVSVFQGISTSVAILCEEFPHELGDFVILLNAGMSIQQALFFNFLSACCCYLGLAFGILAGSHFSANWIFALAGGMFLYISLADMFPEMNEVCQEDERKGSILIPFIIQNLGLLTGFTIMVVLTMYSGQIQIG
UniProt P19634, whole entry, looked up: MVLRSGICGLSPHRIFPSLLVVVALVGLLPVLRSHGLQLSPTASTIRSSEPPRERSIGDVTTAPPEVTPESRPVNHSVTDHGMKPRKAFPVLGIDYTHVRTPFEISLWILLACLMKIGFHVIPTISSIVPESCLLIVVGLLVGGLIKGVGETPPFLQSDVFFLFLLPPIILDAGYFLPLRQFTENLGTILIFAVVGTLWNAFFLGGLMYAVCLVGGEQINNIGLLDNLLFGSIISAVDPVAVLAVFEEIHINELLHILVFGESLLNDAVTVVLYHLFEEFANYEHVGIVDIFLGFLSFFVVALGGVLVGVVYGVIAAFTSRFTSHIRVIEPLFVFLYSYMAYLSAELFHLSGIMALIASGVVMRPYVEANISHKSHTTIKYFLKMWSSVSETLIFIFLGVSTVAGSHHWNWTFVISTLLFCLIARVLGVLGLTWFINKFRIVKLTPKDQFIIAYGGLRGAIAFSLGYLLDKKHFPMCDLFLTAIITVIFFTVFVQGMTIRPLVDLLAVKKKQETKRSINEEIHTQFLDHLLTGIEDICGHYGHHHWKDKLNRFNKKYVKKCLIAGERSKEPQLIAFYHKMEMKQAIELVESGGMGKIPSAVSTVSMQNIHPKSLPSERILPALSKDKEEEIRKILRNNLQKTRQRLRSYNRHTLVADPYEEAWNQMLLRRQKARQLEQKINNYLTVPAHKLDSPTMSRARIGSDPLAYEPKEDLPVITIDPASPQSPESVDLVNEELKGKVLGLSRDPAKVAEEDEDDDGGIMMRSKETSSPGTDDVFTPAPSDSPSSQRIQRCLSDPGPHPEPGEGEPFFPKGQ

Columns and labels:
Assay in all cases: log2 fold change, soluble protein after heating vs DMSO (PISA); higher = thermal stabilisation; K562 lysate, 10 uM; active = over 0.2 and 3.5 SD of the protein, either way, in both replicates (recomputed)
erlotinib = compound: C#Cc1cccc(Nc2ncnc3cc(OCCOC)c(OCCOC)cc23)c1 [erlotinib]
Procedure, shortened: (§1)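 Dounce homogenisation of K562 pellets in PBS pH 7.4 with 1 mM MgCl2 produced a crude extract, used at 1 mg/mL protein. Exposure to 10 μM compound lasted 30 min, and aliquots were then heated for 3 min across 48°C-58°C, pooled and brought to 0.5% NP-40 at 4°C. The supernatant after 21,000xg for 90 min was quantified by TMTpro 16plex LC-MS/MS with channel sums equalised. Duplicate values are given as log-two fold change in thermal stability relative to solvent controls.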

[1] = compound: C/C(=N\NC(=O)C1=CC(=CC=C1)S(=O)(=O)N2CCOCC2)/C3=C(C=CC(=C3)Cl)O
Procedure, shortened: as §1

[2] = compound: C1=CC(=CC=C1C2=NC3=C(N2)C=C(C=C3)C(=O)N)OC4=CC=C(C=C4)Cl
Procedure, shortened: as §1

[3] = compound: C1=CC2=C(C=CC(=C2)/C=C\3/C(=O)NC(=NCC4=CC=CS4)S3)N=C1
Procedure, shortened: as §1

[4] = compound: C1=CC2=NC=CN=C2C=C1/C=C/3\C(=O)NC(=O)S3
Procedure, shortened: as §1

[5] = compound: C1=CC=C(C=C1)C2=NC(=C(N2)C3=CC=NC=C3)C4=CC(=C(C=C4)Cl)O
Procedure, shortened: as §1

[6] = compound: C1=CC=C2C(=C1)C3=NNC4=CC=CC(=C43)C2=O
Procedure, shortened: as §1

[7] = compound: C1CCN(C1)C(=O)NC2=CC=CC(=C2)NC3=NC=C(C(=N3)NCCC4=CN=CN4)Br
Procedure, shortened: as §1

[8] = compound: C1CN(CCC1(CC2=CC=C(C=C2)Cl)N)C3=NC=NC4=C3C=CN4
Procedure, shortened: as §1

IRAK-1-4 Inhibitor I = compound: C1COCCN1CCN2C3=CC=CC=C3N=C2NC(=O)C4=CC(=CC=C4)[N+](=O)[O-] [IRAK-1-4 Inhibitor I]
Procedure, shortened: as §1

Measured: log2 fold change

SLC25A19 (UniProt Q9HC21)
inactive: erlotinib 0.021 | [1] -0.041 | [2] -0.041 | [3] -0.003 | [4] -0.008 | [5] -0.022 | [6] -0.056 | [7] -0.034 | [8] -0.04 | IRAK-1-4 Inhibitor I 0.009

SLC33A1 (UniProt O00400)
inactive: erlotinib -0.071 | [1] -0.037 | [2] -0.045 | [3] 0.024 | [4] -0.021 | [5] -0.045 | [6] -0.047 | [7] -0.019 | [8] -0.002 | IRAK-1-4 Inhibitor I 0.032

SLC25A21 (UniProt Q9BQT8)
inactive: erlotinib -0.009 | [1] 0.014 | [2] 0.047 | [3] 0 | [4] -0.026 | [5] -0.015 | [6] 0.028 | [7] -0.003 | [8] -0.002 | IRAK-1-4 Inhibitor I -0.001

SLC7A1 (UniProt P30825)
inactive: erlotinib 0.043 | [1] 0.058 | [2] 0.067 | [3] 0.032 | [4] -0.006 | [5] 0.002 | [6] -0.001 | [7] -0.011 | [8] -0.036 | IRAK-1-4 Inhibitor I -0.016

SLC35F2 (UniProt Q8IXU6)
inactive: erlotinib -0.022 | [1] -0.114 | [2] 0.038 | [3] 0.137 | [4] -0.078 | [5] 0.032 | [6] -0.065 | [7] -0.074 | [8] 0.013 | IRAK-1-4 Inhibitor I 0.031

SLC9A3R2 (UniProt Q15599)
inactive: erlotinib 0.024 | [1] -0.134 | [2] 0.021 | [3] 0.022 | [4] -0.024 | [5] 0.001 | [6] -0.032 | [7] -0.034 | [8] 0.006 | IRAK-1-4 Inhibitor I 0.014

SLC48A1 (UniProt Q6P1K1)
inactive: erlotinib -0.109 | [1] -0.288 | [2] -0.027 | [3] -0.019 | [4] 0.056 | [5] -0.194 | [6] 0.154 | [7] -0.099 | [8] 0.087 | IRAK-1-4 Inhibitor I 0.023

SLC38A10 (UniProt Q9HBR0)
inactive: erlotinib 0.007 | [1] -0.128 | [2] -0.006 | [3] -0.065 | [4] -0.009 | [5] 0.02 | [6] -0.127 | [7] 0 | [8] 0.016 | IRAK-1-4 Inhibitor I 0.047

SLC25A44 (UniProt Q96H78)
inactive: erlotinib 0.117 | [1] -0.275 | [2] 0.055 | [3] -0.018 | [4] 0.025 | [5] -0.064 | [6] 0.145 | [7] -0.039 | [8] 0.037 | IRAK-1-4 Inhibitor I -0.053

SLC30A10 (UniProt Q6XR72)
inactive: erlotinib 0.036 | [1] 0.061 | [2] -0.02 | [3] 0.071 | [4] -0.027 | [5] -0.006 | [6] -0.175 | [7] 0.082 | [8] -0.016 | IRAK-1-4 Inhibitor I 0.04

SLC25A3 isoform 2 (UniProt Q00325)
inactive: erlotinib 0.019 | [1] -0.033 | [2] 0.024 | [3] -0.018 | [4] -0.01 | [5] -0.006 | [6] -0.02 | [7] 0.004 | [8] -0.008 | IRAK-1-4 Inhibitor I 0.04

SLC7A6OS (UniProt Q96CW6)
inactive: erlotinib -0.018 | [1] 0.03 | [2] -0.006 | [3] 0.001 | [4] -0.047 | [5] 0.036 | [6] -0.004 | [7] 0.016 | [8] 0.036 | IRAK-1-4 Inhibitor I 0.005

SLC5A3 (UniProt P53794)
inactive: erlotinib 0.069 | [1] -0.008 | [2] 0.013 | [3] -0.036 | [4] -0.003 | [5] 0.025 | [6] -0.011 | [7] 0.005 | [8] -0.026 | IRAK-1-4 Inhibitor I 0.05

SLC27A4 (UniProt Q6P1M0)
inactive: erlotinib 0.022 | [1] 0.01 | [2] -0.023 | [3] 0.052 | [4] 0.063 | [5] -0.009 | [6] 0.041 | [7] 0.015 | [8] 0.084 | IRAK-1-4 Inhibitor I -0.003

SLC38A1 (UniProt Q9H2H9)
inactive: erlotinib -0.01 | [1] -0.029 | [2] 0.056 | [3] 0.007 | [4] 0.01 | [5] 0.039 | [6] -0.061 | [7] -0.027 | [8] 0.026 | IRAK-1-4 Inhibitor I 0.053

2 neighbouring records already listed, quoted:
SLC27A4 (UniProt Q6P1M0)
inactive: erlotinib 0.022 | [1] 0.01 | [2] -0.023 | [3] 0.052 | [4] 0.063 | [5] -0.009 | [6] 0.041 | [7] 0.015 | [8] 0.084 | IRAK-1-4 Inhibitor I -0.003

SLC38A1 (UniProt Q9H2H9)
inactive: erlotinib -0.01 | [1] -0.029 | [2] 0.056 | [3] 0.007 | [4] 0.01 | [5] 0.039 | [6] -0.061 | [7] -0.027 | [8] 0.026 | IRAK-1-4 Inhibitor I 0.053

Next entries

SLC39A10 (UniProt Q9ULF5)
inactive: erlotinib -0.022 | [1] 0.101 | [2] 0.013 | [3] 0.082 | [4] -0.002 | [5] -0.029 | [6] 0.001 | [7] -0.049 | [8] 0.022 | IRAK-1-4 Inhibitor I -0.05

SLC25A46 (UniProt Q96AG3)
inactive: erlotinib 0.01 | [1] 0.047 | [2] -0.006 | [3] -0.03 | [4] -0.088 | [5] -0.016 | [6] 0 | [7] -0.004 | [8] 0.027 | IRAK-1-4 Inhibitor I 0.039

SMAP1 isoform 2 (UniProt Q8IYB5)
inactive: erlotinib 0.002 | [1] -0.058 | [2] 0.037 | [3] -0.017 | [4] -0.024 | [5] -0.041 | [6] -0.031 | [7] -0.001 | [8] 0.026 | IRAK-1-4 Inhibitor I 0.03

SLC37A4 isoform 2 (UniProt O43826)
inactive: erlotinib -0.015 | [1] -0.048 | [2] 0.065 | [3] 0.004 | [4] -0.049 | [5] 0.004 | [6] -0.058 | [7] -0.071 | [8] -0.058 | IRAK-1-4 Inhibitor I 0.011

SLC25A12 (UniProt O75746)
inactive: erlotinib 0.014 | [1] 0.045 | [2] 0.012 | [3] -0.011 | [4] -0.012 | [5] -0.006 | [6] 0.009 | [7] -0.008 | [8] 0.004 | IRAK-1-4 Inhibitor I -0.012

SLC25A31 (UniProt Q9H0C2)
inactive: erlotinib 0.008 | [1] -0.039 | [2] 0.051 | [3] -0.027 | [4] -0.008 | [5] -0.025 | [6] -0.006 | [7] -0.004 | [8] -0.014 | IRAK-1-4 Inhibitor I 0.051

SLC25A4 (UniProt P12235)
inactive: erlotinib -0.019 | [1] 0.051 | [2] 0.01 | [3] -0.026 | [4] 0.016 | [5] -0.028 | [6] 0.041 | [7] 0.001 | [8] -0.073 | IRAK-1-4 Inhibitor I 0.002

SLC2A4 (UniProt P14672)
inactive: erlotinib -0.077 | [1] 0.126 | [2] 0.091 | [3] 0.039 | [4] 0.064 | [5] -0.117 | [6] -0.33 | [7] 0.069 | [8] -0.03 | IRAK-1-4 Inhibitor I 0.045

SLC35A2 isoform 4 (UniProt P78381)
inactive: erlotinib -0.015 | [1] 0.034 | [2] 0.006 | [3] -0.04 | [4] -0.044 | [5] 0.027 | [6] -0.016 | [7] 0.036 | [8] -0.007 | IRAK-1-4 Inhibitor I 0.08

SLC2A3 (UniProt P11169)
inactive: erlotinib -0.01 | [1] 0.038 | [2] -0.004 | [3] -0.001 | [4] 0.002 | [5] 0.036 | [6] -0.054 | [7] -0.013 | [8] 0.047 | IRAK-1-4 Inhibitor I 0.069

SLC25A6 (UniProt P12236)
inactive: erlotinib 0.006 | [1] 0.014 | [2] 0.012 | [3] -0.003 | [4] -0.009 | [5] 0.003 | [6] 0.067 | [7] 0.005 | [8] -0.021 | IRAK-1-4 Inhibitor I 0.021

SLC29A1 isoform 2 (UniProt Q99808)
inactive: erlotinib 0.035 | [1] 0.011 | [2] -0.051 | [3] 0.033 | [4] 0.012 | [5] -0.026 | [6] -0.034 | [7] -0.053 | [8] 0.037 | IRAK-1-4 Inhibitor I 0.092

SLC39A14 (UniProt Q15043)
inactive: erlotinib -0.009 | [1] -0.019 | [2] -0.018 | [3] -0.018 | [4] 0 | [5] -0.008 | [6] -0.092 | [7] -0.014 | [8] 0.008 | IRAK-1-4 Inhibitor I -0.002

SLC22A23 (UniProt A1A5C7)
inactive: erlotinib -0.045 | [1] 0.048 | [2] 0.076 | [3] -0.058 | [4] 0.002 | [5] 0.057 | [6] 0.08 | [7] -0.008 | [8] 0.016 | IRAK-1-4 Inhibitor I 0.122

SLC9A1 (UniProt P19634)
inactive: erlotinib -0.01 | [1] -0.123 | [2] -0.035 | [3] -0.072 | [4] -0.001 | [5] 0.12 | [6] 0.021 | [7] 0.066 | [8] -0.007 | IRAK-1-4 Inhibitor I -0.016
